# Results taken from PubChem BioAssay AID1671193 (National Center for Advancing Translational Sciences (NCATS), 2021).
# The entries are a selection whose mix differs from that of the whole data set. Results filed as inconclusive are left out. Active and inactive are the calls of the source. The call rests on the fitted dose curve; in most records, active means well fitted cell-killing curve with a large enough effect; inconclusive means small, poorly fitted or top-dose-only effect, or effect the other way; inactive means flat fitted curve, though single readings scatter.
# Assay: GF-AFC viability counterscreen for inhibitors of alpha-synuclein gene (SNCA) expression; further: nearly all actives have a fitted effect of over 30% in size
# Conditions: HEK-293-SNCA-luc viability, GF-AFC fluorescence, 24 h
# Description: Assay Submitter (PI): Daniel R. Scoles Ph.D.
# Department of Neurology, University of Utah, Salt Lake City, Utah
# Accumulation of alpha-synuclein is a main underlying pathological feature of Parkinson's disease (PD) and alpha-synucleinopathies, for which lowering expression of the alpha-synuclein gene (SNCA) is a potential therapeutic avenue. Using a cell-based luciferase reporter of SNCA expression we performed a quantitative high throughput screen (qHTS) of 155,885 compounds in dose response. The screening assay was generated using genome editing to insert the luciferase gene downstream and in frame of the SNCA gene in HEK-293 cells (1). A viability counterscreen using GF-AFC was used to eliminate cytotoxic and false positive compounds. […]
# Described herein are the results of the GF-AFC viability counterscreen for SNCA inhibitors; inactivity (no decrease in fluorescence signal, not cytotoxic) is the desired output for this assay. […]
# 7; Detector; Fluorescence; Measure fluorescence with ViewLux microplate reader (PerkinElmer) equipped with 405/10 excitation and 540/25 emission filters. […]
# 10; Detector; Luminescence; Measure luminescence with ViewLux microplate reader (PerkinElmer) equipped with clear filters. […]
# 10; Signals were analyzed, and dose-response curves were fit using the Hill equation. […]
# Potency means the concentration at half of the fitted maximal effect.
row,Structure (SMILES),Potency
1,COc1cc2nc(N3CCCC3)nc(NCCCCCN3CCCC3)c2cc1OC,active: 9.47 µM
